# Experimental data from the supplement of paper PMC7666118.
# Chains of the proteins cited; added tags and fusions are not shown. Lines headed by an entry give the natural chain unless they say otherwise; changes in a name come on top.
# UniProt Q9Y3B6: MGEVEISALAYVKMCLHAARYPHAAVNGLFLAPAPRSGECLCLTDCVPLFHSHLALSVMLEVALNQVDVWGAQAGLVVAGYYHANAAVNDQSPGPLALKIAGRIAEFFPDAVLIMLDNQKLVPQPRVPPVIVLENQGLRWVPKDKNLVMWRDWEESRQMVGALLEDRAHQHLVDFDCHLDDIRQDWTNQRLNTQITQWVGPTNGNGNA
# UniProt O75063: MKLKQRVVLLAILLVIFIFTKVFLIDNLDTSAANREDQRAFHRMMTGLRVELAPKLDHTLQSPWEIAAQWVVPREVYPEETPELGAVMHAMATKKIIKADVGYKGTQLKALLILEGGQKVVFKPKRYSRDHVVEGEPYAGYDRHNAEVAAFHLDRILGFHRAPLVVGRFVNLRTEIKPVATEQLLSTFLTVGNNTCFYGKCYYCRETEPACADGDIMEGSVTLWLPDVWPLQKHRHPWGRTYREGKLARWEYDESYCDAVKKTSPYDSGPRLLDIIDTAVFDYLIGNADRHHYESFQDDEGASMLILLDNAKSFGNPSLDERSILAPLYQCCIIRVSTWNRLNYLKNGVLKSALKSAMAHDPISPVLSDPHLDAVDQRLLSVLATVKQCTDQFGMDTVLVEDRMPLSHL
# UniProt Q8NFC6: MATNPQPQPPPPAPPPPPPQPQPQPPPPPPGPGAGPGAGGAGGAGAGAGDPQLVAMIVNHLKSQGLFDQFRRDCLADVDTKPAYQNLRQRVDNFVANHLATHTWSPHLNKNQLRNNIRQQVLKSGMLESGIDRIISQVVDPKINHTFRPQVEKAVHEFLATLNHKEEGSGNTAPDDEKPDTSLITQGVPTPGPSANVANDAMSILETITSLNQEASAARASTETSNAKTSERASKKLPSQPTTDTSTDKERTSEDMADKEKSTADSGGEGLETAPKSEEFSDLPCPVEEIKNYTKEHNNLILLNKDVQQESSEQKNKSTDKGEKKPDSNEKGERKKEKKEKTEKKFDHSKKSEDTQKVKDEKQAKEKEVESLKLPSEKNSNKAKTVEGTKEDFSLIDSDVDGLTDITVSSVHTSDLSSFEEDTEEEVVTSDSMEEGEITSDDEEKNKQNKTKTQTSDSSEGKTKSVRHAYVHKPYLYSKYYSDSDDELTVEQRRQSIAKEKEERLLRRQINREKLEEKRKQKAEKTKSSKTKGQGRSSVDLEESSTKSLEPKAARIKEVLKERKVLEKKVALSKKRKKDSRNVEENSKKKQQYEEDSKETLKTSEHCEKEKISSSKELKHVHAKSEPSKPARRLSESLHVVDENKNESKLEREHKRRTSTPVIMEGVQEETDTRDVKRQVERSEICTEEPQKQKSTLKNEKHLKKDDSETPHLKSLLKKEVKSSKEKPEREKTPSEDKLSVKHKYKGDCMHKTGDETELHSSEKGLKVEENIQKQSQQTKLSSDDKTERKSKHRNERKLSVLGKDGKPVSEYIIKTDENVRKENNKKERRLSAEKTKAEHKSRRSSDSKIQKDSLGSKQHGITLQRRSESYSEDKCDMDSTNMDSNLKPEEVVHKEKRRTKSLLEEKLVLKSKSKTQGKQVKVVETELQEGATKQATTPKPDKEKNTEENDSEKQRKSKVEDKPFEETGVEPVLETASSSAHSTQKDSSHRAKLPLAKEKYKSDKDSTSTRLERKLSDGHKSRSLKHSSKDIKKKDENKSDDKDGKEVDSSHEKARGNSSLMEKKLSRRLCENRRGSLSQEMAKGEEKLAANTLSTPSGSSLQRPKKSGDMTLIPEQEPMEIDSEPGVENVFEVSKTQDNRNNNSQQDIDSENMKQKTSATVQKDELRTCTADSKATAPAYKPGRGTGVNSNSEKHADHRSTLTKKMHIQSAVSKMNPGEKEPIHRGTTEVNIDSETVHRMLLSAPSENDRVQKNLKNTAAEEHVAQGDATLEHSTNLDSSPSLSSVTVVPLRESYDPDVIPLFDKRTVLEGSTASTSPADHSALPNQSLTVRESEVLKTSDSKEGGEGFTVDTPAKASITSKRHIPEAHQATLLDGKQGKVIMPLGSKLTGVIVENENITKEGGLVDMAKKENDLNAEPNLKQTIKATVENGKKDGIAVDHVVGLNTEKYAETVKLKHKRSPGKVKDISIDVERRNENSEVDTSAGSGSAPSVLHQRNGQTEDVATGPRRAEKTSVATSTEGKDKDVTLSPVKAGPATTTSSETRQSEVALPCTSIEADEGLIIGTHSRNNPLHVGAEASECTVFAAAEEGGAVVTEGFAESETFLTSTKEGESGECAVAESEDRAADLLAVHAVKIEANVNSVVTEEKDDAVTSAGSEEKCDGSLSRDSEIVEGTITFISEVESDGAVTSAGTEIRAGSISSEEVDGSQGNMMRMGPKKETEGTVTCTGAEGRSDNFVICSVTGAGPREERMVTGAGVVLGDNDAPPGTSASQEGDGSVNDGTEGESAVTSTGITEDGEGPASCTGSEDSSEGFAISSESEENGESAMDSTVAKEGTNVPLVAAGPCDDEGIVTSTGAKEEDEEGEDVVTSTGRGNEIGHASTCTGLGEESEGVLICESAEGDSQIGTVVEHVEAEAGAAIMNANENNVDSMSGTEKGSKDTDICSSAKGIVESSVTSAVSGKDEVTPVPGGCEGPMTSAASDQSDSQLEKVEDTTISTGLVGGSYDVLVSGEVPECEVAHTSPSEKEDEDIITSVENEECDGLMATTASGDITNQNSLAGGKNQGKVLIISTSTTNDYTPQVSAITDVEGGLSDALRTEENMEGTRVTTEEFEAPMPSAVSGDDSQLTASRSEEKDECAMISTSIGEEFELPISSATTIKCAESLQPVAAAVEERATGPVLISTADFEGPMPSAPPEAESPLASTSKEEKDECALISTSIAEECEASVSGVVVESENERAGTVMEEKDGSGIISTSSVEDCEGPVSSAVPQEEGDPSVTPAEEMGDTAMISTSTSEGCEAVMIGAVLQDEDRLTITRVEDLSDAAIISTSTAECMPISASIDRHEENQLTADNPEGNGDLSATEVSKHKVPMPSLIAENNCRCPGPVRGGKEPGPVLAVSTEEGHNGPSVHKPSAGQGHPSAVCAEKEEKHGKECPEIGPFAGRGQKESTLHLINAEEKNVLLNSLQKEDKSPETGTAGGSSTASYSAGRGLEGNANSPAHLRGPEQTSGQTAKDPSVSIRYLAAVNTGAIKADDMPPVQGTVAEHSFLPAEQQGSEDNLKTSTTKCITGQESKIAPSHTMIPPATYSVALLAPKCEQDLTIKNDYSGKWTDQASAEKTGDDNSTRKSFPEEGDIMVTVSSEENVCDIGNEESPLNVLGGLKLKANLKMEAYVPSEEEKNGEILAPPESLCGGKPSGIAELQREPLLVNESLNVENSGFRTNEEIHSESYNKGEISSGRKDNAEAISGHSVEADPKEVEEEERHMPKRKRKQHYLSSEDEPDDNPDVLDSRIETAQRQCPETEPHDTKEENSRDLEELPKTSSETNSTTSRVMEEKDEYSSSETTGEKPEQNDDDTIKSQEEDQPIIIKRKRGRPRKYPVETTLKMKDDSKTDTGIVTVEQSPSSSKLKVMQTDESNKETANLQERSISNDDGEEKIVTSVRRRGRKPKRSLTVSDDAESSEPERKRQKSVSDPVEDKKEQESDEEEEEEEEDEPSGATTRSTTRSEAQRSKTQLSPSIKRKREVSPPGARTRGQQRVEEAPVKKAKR
# UniProt Q16134: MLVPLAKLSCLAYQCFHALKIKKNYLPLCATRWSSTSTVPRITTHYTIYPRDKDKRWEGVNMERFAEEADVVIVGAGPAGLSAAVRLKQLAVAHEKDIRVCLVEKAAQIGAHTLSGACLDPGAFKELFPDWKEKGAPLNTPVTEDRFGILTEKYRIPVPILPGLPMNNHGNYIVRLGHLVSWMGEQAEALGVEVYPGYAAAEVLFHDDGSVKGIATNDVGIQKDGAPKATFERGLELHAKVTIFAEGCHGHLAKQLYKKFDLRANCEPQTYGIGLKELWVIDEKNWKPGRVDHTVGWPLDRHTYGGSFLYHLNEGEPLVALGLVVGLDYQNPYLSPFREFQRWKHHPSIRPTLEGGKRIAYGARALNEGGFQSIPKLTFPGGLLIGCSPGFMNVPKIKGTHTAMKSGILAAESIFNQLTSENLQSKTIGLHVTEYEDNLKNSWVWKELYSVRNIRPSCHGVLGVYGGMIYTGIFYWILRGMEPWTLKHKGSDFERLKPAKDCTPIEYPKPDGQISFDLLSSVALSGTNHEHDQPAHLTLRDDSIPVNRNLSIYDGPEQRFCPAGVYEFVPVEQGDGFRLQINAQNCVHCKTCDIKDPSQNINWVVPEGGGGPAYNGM
# UniProt Q567V2: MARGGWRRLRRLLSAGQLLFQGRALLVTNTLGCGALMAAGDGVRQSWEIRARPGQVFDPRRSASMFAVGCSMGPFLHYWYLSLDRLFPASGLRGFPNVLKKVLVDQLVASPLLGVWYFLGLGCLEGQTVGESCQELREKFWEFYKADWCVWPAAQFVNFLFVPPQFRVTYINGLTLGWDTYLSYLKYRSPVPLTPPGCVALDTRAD
# UniProt Q96CP2: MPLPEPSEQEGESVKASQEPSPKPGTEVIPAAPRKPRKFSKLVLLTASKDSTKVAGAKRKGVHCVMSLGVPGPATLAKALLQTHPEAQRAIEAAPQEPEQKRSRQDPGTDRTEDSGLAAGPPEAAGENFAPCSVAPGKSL
# UniProt O60427: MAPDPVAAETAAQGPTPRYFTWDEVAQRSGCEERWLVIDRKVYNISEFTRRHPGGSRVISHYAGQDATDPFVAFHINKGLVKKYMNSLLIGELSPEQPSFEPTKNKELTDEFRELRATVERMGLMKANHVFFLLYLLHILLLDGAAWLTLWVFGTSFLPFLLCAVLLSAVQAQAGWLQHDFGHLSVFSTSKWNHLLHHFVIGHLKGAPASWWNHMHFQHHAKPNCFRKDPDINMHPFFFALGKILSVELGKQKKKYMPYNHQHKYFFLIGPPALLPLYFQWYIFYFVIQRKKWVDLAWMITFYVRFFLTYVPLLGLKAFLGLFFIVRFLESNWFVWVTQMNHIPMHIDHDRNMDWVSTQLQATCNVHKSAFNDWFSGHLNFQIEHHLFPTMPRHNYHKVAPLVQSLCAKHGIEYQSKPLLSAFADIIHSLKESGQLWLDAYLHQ
# UniProt Q9BTL3: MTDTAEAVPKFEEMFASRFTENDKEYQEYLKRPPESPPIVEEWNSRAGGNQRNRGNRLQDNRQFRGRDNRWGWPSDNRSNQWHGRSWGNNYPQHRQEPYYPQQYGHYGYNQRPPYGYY
# UniProt Q5RI15: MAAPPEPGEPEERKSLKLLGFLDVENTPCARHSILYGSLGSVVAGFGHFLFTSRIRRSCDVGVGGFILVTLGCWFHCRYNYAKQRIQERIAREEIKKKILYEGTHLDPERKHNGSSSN
# UniProt Q13045: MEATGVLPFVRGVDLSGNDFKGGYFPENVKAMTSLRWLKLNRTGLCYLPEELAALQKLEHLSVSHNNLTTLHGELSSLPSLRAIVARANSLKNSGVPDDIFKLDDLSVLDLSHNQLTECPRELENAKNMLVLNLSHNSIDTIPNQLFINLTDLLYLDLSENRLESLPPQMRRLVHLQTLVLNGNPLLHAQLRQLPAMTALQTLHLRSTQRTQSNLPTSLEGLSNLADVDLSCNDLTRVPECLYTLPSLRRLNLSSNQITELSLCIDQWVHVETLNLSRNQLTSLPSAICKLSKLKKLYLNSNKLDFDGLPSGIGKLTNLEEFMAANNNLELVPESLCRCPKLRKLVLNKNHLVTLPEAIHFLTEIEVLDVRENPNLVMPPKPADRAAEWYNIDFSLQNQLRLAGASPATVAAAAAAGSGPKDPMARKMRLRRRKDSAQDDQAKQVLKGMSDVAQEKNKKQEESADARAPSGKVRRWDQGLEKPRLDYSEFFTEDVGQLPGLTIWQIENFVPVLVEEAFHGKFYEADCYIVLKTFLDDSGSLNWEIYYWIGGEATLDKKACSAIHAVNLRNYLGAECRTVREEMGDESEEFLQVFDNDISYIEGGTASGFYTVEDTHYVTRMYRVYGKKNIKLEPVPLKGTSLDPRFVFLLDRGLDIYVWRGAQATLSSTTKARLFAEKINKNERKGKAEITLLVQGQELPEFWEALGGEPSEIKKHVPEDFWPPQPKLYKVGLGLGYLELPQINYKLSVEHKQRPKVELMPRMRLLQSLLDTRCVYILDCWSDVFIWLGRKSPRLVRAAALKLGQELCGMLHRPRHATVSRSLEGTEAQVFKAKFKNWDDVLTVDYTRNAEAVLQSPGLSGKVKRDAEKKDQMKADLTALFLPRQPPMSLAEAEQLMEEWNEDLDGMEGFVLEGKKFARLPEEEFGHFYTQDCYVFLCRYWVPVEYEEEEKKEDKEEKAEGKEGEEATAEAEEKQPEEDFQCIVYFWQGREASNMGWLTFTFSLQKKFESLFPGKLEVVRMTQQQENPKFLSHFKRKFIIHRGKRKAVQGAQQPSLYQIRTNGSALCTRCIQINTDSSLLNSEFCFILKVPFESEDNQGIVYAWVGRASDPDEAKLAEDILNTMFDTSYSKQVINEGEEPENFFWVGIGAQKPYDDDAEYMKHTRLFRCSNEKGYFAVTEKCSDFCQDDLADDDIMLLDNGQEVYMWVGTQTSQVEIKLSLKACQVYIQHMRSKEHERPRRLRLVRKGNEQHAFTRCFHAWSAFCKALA
# The other results are listed elsewhere or left out.
# Compound: COc1ccc(Cn2ccc3ccc(C(=O)NO)cc32)cc1
# Assay: dose-dependent thermal stabilisation call (2D-TPP, DLPTP, 10% FDR) (binary (1 = stabilised)); higher = stabilised by the compound
# Settings: system: HL-60 intact cells; concentration range 0.04-10 µM
row,Target,dose-dependent thermal stabilisation call
1,FASTKD2 (UniProt Q9NYY8),inactive: 0
2,FLJ12529,inactive: 0
3,FASN (UniProt P49327),inactive: 0
4,FAM134A (UniProt Q8NC44),inactive: 0
5,FAM175B (UniProt Q15018),inactive: 0
6,FUCA1 (UniProt P04066),inactive: 0
7,FAM62A (UniProt Q9BSJ8),inactive: 0
8,FCHSD2 (UniProt O94868),inactive: 0
9,EXOSC2 (UniProt Q13868),inactive: 0
10,FLJ43093,inactive: 0
11,FBXO21 (UniProt O94952),inactive: 0
12,FAM158A (UniProt Q9Y3B6),inactive: 0
13,FHIT (UniProt P49789),inactive: 0
14,FAM20B (UniProt O75063),inactive: 0
15,FAHD1 (UniProt Q6P587),inactive: 0
16,FAM44A (UniProt Q8NFC6),inactive: 0
17,EXOC2 (UniProt Q96KP1),inactive: 0
18,FBXL8 (UniProt Q96CD0),inactive: 0
19,FAM111A (UniProt Q96PZ2),inactive: 0

row,Target,dose-dependent thermal stabilisation call
1,FNDC3B (UniProt Q53EP0),inactive: 0
2,FBXO3 (UniProt Q9UK99),inactive: 0
3,FLG2 (UniProt Q5D862),inactive: 0
4,FAM129A (UniProt Q9BZQ8),inactive: 0
5,ETFDH (UniProt Q16134),inactive: 0
6,FKSG24 (UniProt Q567V2),inactive: 0
7,FAM76A (UniProt Q8TAV0),inactive: 0
8,FLYWCH2 (UniProt Q96CP2),inactive: 0
9,FADS1 (UniProt O60427),inactive: 0
10,FEM1B (UniProt Q9UK73),inactive: 0
11,G6PD (UniProt P11413),inactive: 0
12,FAM103A1 (UniProt Q9BTL3),inactive: 0
13,FAM36A (UniProt Q5RI15),inactive: 0
14,FXR1 (UniProt P51114),inactive: 0
15,FASTKD1 (UniProt Q53R41),inactive: 0
16,FLII (UniProt Q13045),inactive: 0
17,GARS (UniProt P41250),inactive: 0
18,FLJ21865,inactive: 0

# Two neighbouring entries out of the list so far:
row,Target,dose-dependent thermal stabilisation call
5,ETFDH (UniProt Q16134),inactive: 0
6,FKSG24 (UniProt Q567V2),inactive: 0
